According to patent US20080281075 (published 2008):

Assay: general procedure: solution-phase peptide synthesis; bromotripyrrolidinophosphonium hexafluorophosphate, N,N-diisopropylethylamine
Conditions: coupling step

## Fmoc-Ala-Ala-Ala-oxazinone
  step yield: 68%
